From patent US20080281075 (published 2008)

Assay: general procedure: solution-phase peptide synthesis; bromotripyrrolidinophosphonium hexafluorophosphate, N,N-diisopropylethylamine
Conditions: coupling step

Substance Fmoc-Ala-Ala-Ala-oxazinone has a step yield of 68%.
